The assay concerns the target T1, S. pombe Pol I subunit AC40 with C-terminal flag-his tag (Schizosaccharomyces pombe (endogenous in S. pombe)) (UniProt O94616).
T1 sequence: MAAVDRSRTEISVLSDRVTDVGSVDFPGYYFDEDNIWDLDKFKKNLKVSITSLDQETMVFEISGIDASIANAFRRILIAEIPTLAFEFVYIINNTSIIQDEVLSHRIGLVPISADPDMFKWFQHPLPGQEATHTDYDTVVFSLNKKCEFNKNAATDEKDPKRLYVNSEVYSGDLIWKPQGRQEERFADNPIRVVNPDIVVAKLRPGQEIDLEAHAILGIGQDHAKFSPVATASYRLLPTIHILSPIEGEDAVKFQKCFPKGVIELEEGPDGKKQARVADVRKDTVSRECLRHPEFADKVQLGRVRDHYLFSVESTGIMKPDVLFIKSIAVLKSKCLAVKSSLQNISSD
Nature of the assay: affinity purification with mass spectrometry; endogenous Pol I purified from S. pombe extract by the 10xHis tag on AC40 (Ni-NTA), then MonoQ and MonoS; subunits seen as bands on Coomassie-stained SDS-PAGE; A49/A34.5 also by mass spectrometry.

Sequences of proteins named here, by UniProt entry; tags and fusion partners are left off.
UniProt P36595: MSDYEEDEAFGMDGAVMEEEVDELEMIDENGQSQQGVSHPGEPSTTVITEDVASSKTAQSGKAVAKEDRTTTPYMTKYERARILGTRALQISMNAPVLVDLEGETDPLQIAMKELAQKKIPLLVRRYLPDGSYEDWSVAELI

These are yes or no findings as the source states them, for the method shown. Binding seen in cells or lysates may run through a third protein. Here binding means that the protein was enriched with, or labelled near, the bait; the list need not be complete. Tags and fused reporters may be left off the sequences shown.

“S. pombe general RNA polymerase subunit Rpb6 (from UniProt P36595 1-142)”: the binding result was “binds”.

The values are drawn from article PMC7859239.
